Reference: patent US20220204497A1, “NOVEL COMPOUND HAVING ANTICANCER ACTIVITY, AND METHOD FOR PRODUCING SAME” (MEDICINAL BIOCONVERGENCE RESEARCH CENTER, priority 2019, published 2022)
Values joined by “and” are separate entries in the source; they are usually repeats but may differ in a detail not shown here. Equal values may be shown once. The name of at least one read-out is uncertain.

Tested on: A549 cells
Assay: Cell viability by MTT method in A549 cells
Format: cell-based
Set-up: concentration or dose not given beside the values
Conditions: 72 hours treatment

## O=C(Nc1nc(-c2ccc([N+](=O)[O-])cc2)cs1)[C@H](Cc1c[nH]c2ccccc12)NS(=O)(=O)c1ccc(Br)cc1 [Compound 190, (S)-2-(4-Bromophenylsulfonamido)-3-(1H-indol-3-yl)-N-(4-(4-nitrophenyl)thiazol-2-yl)propanamide]
  Cell Viability (% inhibition) (A549): 52.46 ± 2.36% and 62.46 ± 2.36%
